Measurements from publication PMC7819943, “Rice protein-binding microarrays: a tool to detect cis-acting elements near promoter regions in rice”.
The other results are listed elsewhere or left out.

The chains behind the UniProt entries cited, without tags or fusion partners.
UniProt Q0JBA9, entry or part of it: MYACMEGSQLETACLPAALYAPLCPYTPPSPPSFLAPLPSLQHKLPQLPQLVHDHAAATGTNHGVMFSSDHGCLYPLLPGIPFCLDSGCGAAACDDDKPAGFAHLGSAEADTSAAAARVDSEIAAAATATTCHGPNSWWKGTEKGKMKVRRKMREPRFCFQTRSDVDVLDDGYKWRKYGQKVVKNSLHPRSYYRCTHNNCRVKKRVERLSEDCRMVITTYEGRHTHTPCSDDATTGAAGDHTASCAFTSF

What follows are sequences tested against OsWRKY34 (Oryza sativa, UniProt Q0JBA9 1-250) (assay: protein-binding microarray (RPBM); PBS, 2% BSA, 51.3 ng/ul salmon testes DNA, 50 uM zinc acetate, 200 nM TF, 25 C, 1 h; high values mean tight binding). Conditions: protein: recombinant; tags: N-terminal polyhistidine and DsRed monomer fusion (pET32a); label: CyDye5-dUTP incorporated in the synthesized complementary strand; 3' TTTTT single-stranded linker to array surface; dsDNA, one strand shown.
In short: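 Binding signal is reported as fluorescence intensity per feature (arbitrary units) from an Axon 4000B scanner. Incubation used 200 nM of each Ni–NTA-purified, N-terminally polyhistidine- and DsRed-fused transcription factor from E. coli BL21-CodonPlus on a double-stranded custom Agilent array for 1 h at 25 °C, with 50 µM zinc acetate in the buffer, followed by washing.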
For “ATTTTGCGAGCTTGGGGTTGGGCTCGAGCTCGGTTCGTTACGGAGTCACCTAGTGCAG”, the binding signal was 9980 fluorescence intensity (a.u.).
With “ATACACCACACTGCTGCATGCTCACCACCACACCTCACTCCGGAGTCACCTAGTGCAG” the binding signal was 8430 fluorescence intensity (a.u.).
In the case of “ATGTATGCGTTTAGTTTGTTGGTAATACCAATTGTTTAGTCGGAGTCACCTAGTGCAG”, the binding signal is reported as 10600 fluorescence intensity (a.u.).
“ATTCTCCACCCAATCCACACCAATCCCACGGGGAGAGAAACGGAGTCACCTAGTGCAG” was tested, and the binding signal was 8210 fluorescence intensity (a.u.).
With “TTTCATTATCTGTTGCTGTGATGTTCTTAGCTTCTATGTGCGGAGTCACCTAGTGCAG” the binding signal was 10000 fluorescence intensity (a.u.).
In the case of “TCCGGAATCCACTGCCTTGTTAGTTGCTGCACAGTTCACACGGAGTCACCTAGTGCAG”, the binding signal is reported as 10500 fluorescence intensity (a.u.).
In the case of “GGCCATATGTACTTCTCTTTTTCTTTTTCTTTTTTTGGAACGGAGTCACCTAGTGCAG”, the binding signal is reported as 9630 fluorescence intensity (a.u.).
“CGCTCTGCAGCGCCGCGTCCATCAGCCCCGCCTTCGCCACCGGAGTCACCTAGTGCAG” was tested, and the binding signal was 11200 fluorescence intensity (a.u.).
“TCACGTTTTCCATCCATATCTTTTTTTTTTCCTGTCTTCTCGGAGTCACCTAGTGCAG” was tested, and the binding signal was 8280 fluorescence intensity (a.u.).
In the case of “TATATATTGTTTTTTTTTACGTTGTTGGTTCCGGATGTGACGGAGTCACCTAGTGCAG”, the binding signal is reported as 9930 fluorescence intensity (a.u.).
In the case of “AAATCTCCACCTGATTCGGCGCTCGGCATTGGTCCCTGAACGGAGTCACCTAGTGCAG”, the binding signal is reported as 9030 fluorescence intensity (a.u.).
“GAAGAACCCGGCCCGACCCGACCCATTACCCAATAACCAGCGGAGTCACCTAGTGCAG” was tested, and the binding signal was 8310 fluorescence intensity (a.u.).
“CGTCGCCGCCGCCGCCGCCAACACCAACCAACTGCGGCTTCGGAGTCACCTAGTGCAG” was tested, and the binding signal was 10600 fluorescence intensity (a.u.).
With “CCTCCGCGTCCATTTCCATCACGCTCCACTCGCCTCGCTGCGGAGTCACCTAGTGCAG” the binding signal was 9320 fluorescence intensity (a.u.).
With “GCCTCCGCCGCCGCCGCCGCCCGCCGGCCATCTCCGTCGACGGAGTCACCTAGTGCAG” the binding signal was 13900 fluorescence intensity (a.u.).
With “GGGAGGGGTGGTTCCTCGAGGTGTAGGTGGGTGGCGCGCTCGGAGTCACCTAGTGCAG” the binding signal was 13300 fluorescence intensity (a.u.).
For “CCACAGATATTTTCTCCTTTTTTTTTCCTTTTTCTTTTTCCGGAGTCACCTAGTGCAG”, the binding signal was 14000 fluorescence intensity (a.u.).
For “CGAGCAGTCCCTTAATCTCTCTCTTAATATGAGTAAACATCGGAGTCACCTAGTGCAG”, the binding signal was 9230 fluorescence intensity (a.u.).
For “GCAACACCTCCCCTGTTCTTGCTCTGTTTCCTCACTCTGTCGGAGTCACCTAGTGCAG”, the binding signal was 10200 fluorescence intensity (a.u.).
“ACACGCACACAAACCCTACCCCTATGAGCATTTTCGAAGACGGAGTCACCTAGTGCAG” was tested, and the binding signal was 9320 fluorescence intensity (a.u.).
For “GCTGCTCCCGACGACGTGCTTCATATCGCGCATGCCCTCTCGGAGTCACCTAGTGCAG”, the binding signal was 10200 fluorescence intensity (a.u.).
“CATGCTTAGCTTCTGTACGTATGCACATCTACCTCTTCATCGGAGTCACCTAGTGCAG” was tested, and the binding signal was 10300 fluorescence intensity (a.u.).
“AGTTCAGACTCCAACTTGGGTCAGATCTCGTTTCCATGACCGGAGTCACCTAGTGCAG” was tested, and the binding signal was 8150 fluorescence intensity (a.u.).
For “ACTAAATTTCACGAATATTACATCATTTTTTTCATCTCTTCGGAGTCACCTAGTGCAG”, the binding signal was 8680 fluorescence intensity (a.u.).
“TATTGTTGTGACTTCCCTTGTCGCCAATGGCTTACTCATTCGGAGTCACCTAGTGCAG” was tested, and the binding signal was 10200 fluorescence intensity (a.u.).
For “GTGATCTTTGTTGTTGTGAGTTGTGACCGGCCTGCAGCCGCGGAGTCACCTAGTGCAG”, the binding signal was 9730 fluorescence intensity (a.u.).
With “TCAATCGTCGTCTCAAGCCTCTTAATTGGGCGCCTTTTCACGGAGTCACCTAGTGCAG” the binding signal was 8210 fluorescence intensity (a.u.).
For “ATGGTAGGATCGTGTGTGTGTGTGTGTACATATATTGTTTCGGAGTCACCTAGTGCAG”, the binding signal was 10300 fluorescence intensity (a.u.).
With “GTTGTTTATTTATGTTGGCTTTCTCTTTTCTAGTATATAGCGGAGTCACCTAGTGCAG” the binding signal was 9210 fluorescence intensity (a.u.).
“ACTGTTCTTGTGTCTTTGTTAGGAGTAGCTAACAATTAGCCGGAGTCACCTAGTGCAG” was tested, and the binding signal was 9500 fluorescence intensity (a.u.).
For “AGCTTCTAGAATATTCTAGATCGTGGTTAGTGCATCCATGCGGAGTCACCTAGTGCAG”, the binding signal was 8210 fluorescence intensity (a.u.).
With “AATATGATACTCTCACTCGGTCAATTTGGCTGGATATGTTCGGAGTCACCTAGTGCAG” the binding signal was 8210 fluorescence intensity (a.u.).
In the case of “TTTCCCCTCGCTAGCTGTGTGCGCACCACCACCACCCAACCGGAGTCACCTAGTGCAG”, the binding signal is reported as 9010 fluorescence intensity (a.u.).
For “GCTGCTGCTGCTGCATGGTGTGATGGTGGTGGTGGTGGTCCGGAGTCACCTAGTGCAG”, the binding signal was 9330 fluorescence intensity (a.u.).
In the case of “CCGCTCGATTCCCCGCGCTTTTATTCCCTCCTCTCTCTCTCGGAGTCACCTAGTGCAG”, the binding signal is reported as 8030 fluorescence intensity (a.u.).
For “AACCACCGACACTTTCTCTGTCAAAACTAGCTGGAACTATCGGAGTCACCTAGTGCAG”, the binding signal was 8090 fluorescence intensity (a.u.).
For “GTGGTTTGTTTGAACGATTTTCAACCCAGAAATGTACTTACGGAGTCACCTAGTGCAG”, the binding signal was 8650 fluorescence intensity (a.u.).
“TCCCTCAATTTGTCGACGAGTCTGAATTCATCCCTGAACTCGGAGTCACCTAGTGCAG” was tested, and the binding signal was 8280 fluorescence intensity (a.u.).
In the case of “GCCCAATTTTGACCATTCGTCTTATTTAAAAATTTGTTAACGGAGTCACCTAGTGCAG”, the binding signal is reported as 8550 fluorescence intensity (a.u.).
In the case of “CATCATAAGCTATATCCATCTTTGCAGTTTGTACTTTGTGCGGAGTCACCTAGTGCAG”, the binding signal is reported as 9650 fluorescence intensity (a.u.).
For “GTTTGTTGGGAGGGCCATGGTGTGAAGCCATTTTCCACCACGGAGTCACCTAGTGCAG”, the binding signal was 9330 fluorescence intensity (a.u.).
“TTCGGTTCTGTCCCTAGCACATGAGACAACTAGCCGGATGCGGAGTCACCTAGTGCAG” was tested, and the binding signal was 8160 fluorescence intensity (a.u.).
